# Experimental data published in PubChem BioAssay AID540276 (National Center for Advancing Translational Sciences (NCATS), 2011).
# The campaign covered roughly 300,000 compounds. About 5,400 (1.8%) were called active. Inconclusive results, whose numbers are uncertain, are shown with a selection of clear calls. Calls follow the shape of the full dose curve; tested in HEK293 cells. Where the call is inconclusive, the potency comes from a doubtful curve fit.
# Test: qHTS for inhibitors of binding or entry into cells for Marburg Virus
# Conditions: Marburg virus pseudotyped entry inhibition, cell reporter; activity change, negative = inhibition: at 37.8 µM (top of the series) unless noted
# % is scaled to controls: 0 for no effect and ±100 for the full control effect; potency is read from the fitted curve at half-maximal effect.
SMILES,Potency,"activity change, negative = inhibition"
CCN(CC)CCSc1nc(O)c(C(C)C)c(=O)[nH]1,"inconclusive: 29.1 µM [activator, single point]",–
CCOC(=O)C1=C(N)N(c2ccc(C)cc2)C2=C(C(=O)CCC2)C1c1cccs1 (stereo not given),"inconclusive: 4.61 µM [inhibitor, partial curve, poor fit]",–
O=C(Nc1ccc(OCC(=O)N2CCOCC2)cc1)c1cccc(Cl)c1,"inconclusive: 2.51 µM [activator, full curve, poor fit]",–
COc1ccccc1N(CC(=O)NCc1ccc(F)cc1)C(=O)CCC(=O)Nc1ccccn1,"inconclusive: 25.1 µM [inhibitor, single point]",–
O=C(CCn1cnc2ncccc2c1=O)N1CCN(c2cccc(Cl)c2)CC1,"inconclusive: 25.1 µM [inhibitor, single point]",–
Nc1nccc(/C=C/c2c(F)cccc2Cl)n1,–,inactive: -25.8% [at 46.1 µM]
CC(=O)c1c(C)nc(-c2cccc([N+](=O)[O-])c2)n1O,"inconclusive: 1.26 µM [inhibitor, single point]",–
O=C(CN(Cc1ccccc1)C(=O)CCC(=O)Nc1ccccn1)NCCc1ccccc1,–,inactive: 0.694% [at 46.1 µM]
O=C(Nc1ccc(S(=O)(=O)N2CCCC2)cc1)c1ccc(CN2CCOCC2)cc1,"inconclusive: 5.62 µM [inhibitor, partial curve, poor fit]",–
COc1ccc(C(=O)N/N=C(\C)CC(=O)Nc2cccc(C(F)(F)F)c2)cc1,"inconclusive: 7.94 µM [inhibitor, partial curve, poor fit]",–
Cc1cc(NC(=O)CSc2nc3cc4c(cc3c(=O)n2CCc2ccccc2)OCO4)no1,–,inactive: 9.4%
COC(=O)c1c(NC(=O)COC(=O)CNC(=O)C2CCCCC2)sc(C)c1C,"inconclusive: 3.55 µM [activator, single point]",–
Nc1c(C(=O)Nc2ccccc2)nnn1-c1ccc2c(c1)OCCO2,"inconclusive: 31.6 µM [inhibitor, single point]",–
COc1ccc(C(=O)Oc2cc3c4c(c2)C(C)=CC(C)(C)N4C(=O)C3=O)cc1OC,"inconclusive: 17.8 µM [activator, single point]",–
CCN(CC)S(=O)(=O)c1cccc(N=NC2=C(O)CCCC2=O)c1,–,inactive: 11.3%
Cc1ccc(NC(=O)Cc2nnc(SCC(=O)NC3CCCC3)n2C)cc1,"inconclusive: 1.26 µM [inhibitor, partial curve, poor fit]",–
O=[N+]([O-])c1ccc(-c2nn(-c3ccccc3)cc2/C=N/n2c(-c3ccncc3)n[nH]c2=S)cc1,"inconclusive: 22.4 µM [activator, partial curve, poor fit]",–
COc1ccc(NS(=O)(=O)c2ccc3nc(COc4ccc(Cl)c(C)c4)[nH]c3c2)cc1,"inconclusive: 15.8 µM [inhibitor, single point]",–
N#CC(c1ccc(Cl)cc1)c1ccc2c(C(F)(F)F)cc(C(F)(F)F)nc2n1 (stereo not given),active: 3.16 µM,–
O=C(Nc1ccc2c(c1)OCCO2)N1CCN(c2ccccc2)CC1,–,inactive: -15%
COc1ccc(C(C)=O)cc1COC(=O)c1cc(C)oc1C,–,inactive: -12.3%
Cc1nc(CN2CCCCC2)c(O)c(=O)[nH]1,"inconclusive: 11.2 µM [activator, single point]",–
O=C(OCC(=O)N1CCCC1=O)c1ccc(F)c(S(=O)(=O)N2CCOCC2)c1,"inconclusive: 0.631 µM [inhibitor, full curve, poor fit]",–
CCOC(=O)C1(CC2CCCCO2)CCN(C(=O)Nc2ccccc2)CC1 (stereo not given),–,inactive: 3.55% [at 46.1 µM]

SMILES,Potency,"activity change, negative = inhibition"
COc1ccc2c(c1)-c1nc(/N=C/c3cccc(OC)c3O)sc1CC2,"inconclusive: 14.1 µM [inhibitor, partial curve, poor fit]",–
C=CCNC(=O)CSc1nc2sc(C)c(C)c2c(=O)[nH]1,"inconclusive: 0.13 µM [activator, single point]",–
CCCCCCN1C[C@@H](n2cc(-c3ccc(F)cc3)nn2)[C@H](O)C[C@H]1c1ccc(OC)cc1,"inconclusive: 12.5 µM [inhibitor, partial curve, poor fit]",–
COc1ccc(CNc2ccc3c(c2)ncn3C)cc1OC,"inconclusive: 2.51 µM [inhibitor, partial curve, poor fit]",–
CCCCOc1ccccc1-c1cc(C(=O)O)[nH]n1,"inconclusive: 3.16 µM [activator, single point]",–
COCC(C)NC(=O)CSc1nc2ccccc2n1CCc1ccccc1 (stereo not given),–,inactive: 3.37%
CCc1noc(C)c1C(=O)Nc1ccc(S(=O)(=O)N2CCCC(C)C2)cc1 (stereo not given),"inconclusive: 35.5 µM [inhibitor, partial curve, poor fit]",–
CC1(C)CC(N=c2cc(-c3ccccc3)oc3ccc(Cl)cc23)CC(C)(C)N1,"inconclusive: 3.98 µM [inhibitor, full curve, poor fit]",–
COc1cccc(C(=O)c2c[nH]c(C(=O)NCc3cccs3)c2)c1,–,inactive: -4.55%
Cc1ccc2c(c1)Cc1c(nc(-c3ccc(F)cc3)nc1SCC(=O)N1CCCCC1)O2,–,inactive: -18% [at 46.1 µM]
CCOc1ccc(NC(=O)C2C(c3ccccc3)C2(Cl)Cl)cc1 (stereo not given),–,inactive: 21% [at 46.1 µM]
CCOc1ccc(CCNC(=O)COC(=O)COc2cc(C)cc(C)c2)cc1OCC,"inconclusive: 17.8 µM [activator, single point]",–
Cc1cc(C)cc(NC(=O)N2CCC(C(=O)c3ccc(F)cc3)CC2)c1,"inconclusive: 35.5 µM [inhibitor, single point]",–
CC1CCC(NC(=O)CN2C(=O)C3CCCN3c3ncc(Cl)cc32)CC1 (stereo not given),–,inactive: 0.547%
c1csc(-c2nc(NCC3CCCO3)c3ccccc3n2)c1 (stereo not given),active: 10 µM,–
O=C(c1ccc(Cl)cc1)C1CCN(C(=O)NC2CCCCC2)CC1,"inconclusive: 29.1 µM [inhibitor, single point]",–
COc1ccc2c(c1)C(CC(=O)NN)CCC2 (stereo not given),"inconclusive: 7.08 µM [inhibitor, partial curve, poor fit]",–
CCC(C)NC(=O)Cn1c(=O)n(-c2ccc(OC)c(OC)c2)c(=O)c2ccccc21 (stereo not given),–,inactive: 2.28% [at 46.1 µM]
COc1ccccc1CNC(=O)CSc1ccc(Br)cc1,"inconclusive: 29.1 µM [inhibitor, single point]",–
C[C@]1(c2cnc(Nc3ccccc3)s2)CCC(=O)O1,–,inactive: -10.4% [at 46.1 µM]
FC(F)(F)c1cc(-c2cccs2)nc2cc(-c3ccccc3)nn12,–,inactive: 23.1%
Cc1ccc(/C=N\NC(=O)Cc2noc3ccccc23)cc1,"inconclusive: 2.51 µM [inhibitor, partial curve, poor fit]",–
Cc1ccc(O)c(N=Cc2cc(Cc3ccccc3)cc([N+](=O)[O-])c2O)c1,"inconclusive: 31.6 µM [inhibitor, single point]",–
Cc1ccc(C(=O)NC2CCN(CC(=O)Nc3cccc([N+](=O)[O-])c3)CC2)cc1,active: 0.794 µM,–

# Looked up above.
# Potency, COc1ccc2c(c1)C(CC(=O)NN)CCC2 (stereo not given) reads inconclusive: 7.08 µM [inhibitor, partial curve, poor fit]
# Potency, COc1ccc(C(=O)N/N=C(\C)CC(=O)Nc2cccc(C(F)(F)F)c2)cc1 reads inconclusive: 7.94 µM [inhibitor, partial curve, poor fit]

# More entries follow.

SMILES,Potency,"activity change, negative = inhibition"
CCN1CCC(NC(=O)Nc2cc(Cl)ccc2OC)CC1,active: 7.08 µM,–
O=C(COC(=O)c1cccc(S(=O)(=O)N2CCc3ccccc3C2)c1)NCc1ccco1,inactive,–
Cc1c(Cl)cccc1NC(=O)NCCCN1CCCC1=O,"inconclusive: 6.31 µM [inhibitor, single point]",–
CCCc1nc2c(=O)[nH]c3ccccc3c2o1,–,inactive: 9.56% [at 46.1 µM]
CCS(=O)(=O)c1ccc2oc(Nc3ccc(OC)cc3)nc2c1,–,inactive: 5.3% [at 46.1 µM]
CO/N=C(/CS(=O)(=O)c1ccc(Br)cc1)c1ccc(OC)cc1,"inconclusive: 14.1 µM [inhibitor, single point]",–
CC(C)[C@H](NS(=O)(=O)c1cccc(C(F)(F)F)c1)C(=O)OCC(=O)NC(=O)NCc1ccco1,"inconclusive: 25.1 µM [inhibitor, single point]",–
Fc1ccc(-c2nc3ccccn3c2NCc2ccc3c(c2)OCO3)cc1,"inconclusive: 6.31 µM [activator, single point]",–
O=C(c1cc(Cl)ccc1Cl)N1CCN(c2ccccn2)CC1,"inconclusive: 0.1 µM [inhibitor, full curve, poor fit]",–
Fc1ccc2[nH]c3c(N4CCN(c5ccccc5)CC4)ncnc3c2c1,"inconclusive: 20 µM [inhibitor, partial curve, poor fit]",–
O=C(OCc1ccccc1)c1cccnc1Cl,–,inactive: 24.9% [at 46.1 µM]
CC(C)CNS(=O)(=O)c1ccc(OCC(=O)Nc2ccc3c(c2)OCO3)c(Cl)c1,"inconclusive: 6.51 µM [activator, single point]",–
O=C(CSc1ncccn1)Nc1ccc2[nH]c(=O)[nH]c2c1,–,inactive: 3.09%
O=C(NCc1ccco1)c1cc2cc3ccc(Cl)cc3nc2o1,"inconclusive: 22.4 µM [inhibitor, single point]",–
COc1ccc(-c2nc(-c3cccc(C)c3)no2)cc1OC,"inconclusive: 10.3 µM [activator, partial curve, poor fit]",–
Cc1ccc(S(=O)(=O)N2CCN(C(=O)c3cc(=O)[nH]c4ccccc34)CC2)c(C)c1,"inconclusive: 1.16 µM [inhibitor, full curve]",–
Cc1ccc(CNc2ccc(N3C(=O)CC(C)C3=O)cc2[N+](=O)[O-])cc1 (stereo not given),–,inactive: 0.51%
CCOC(=O)c1oc2ccccc2c1N,–,inactive: 16.8%
CCOc1ccc(-c2nc(N)ncc2Oc2ccc(OC)cc2)c(O)c1,–,inactive: -27.6%
COc1ccccc1N(CC(=O)N/N=C/c1c(O)ccc2ccccc12)S(C)(=O)=O,"inconclusive: 8.91 µM [inhibitor, partial curve]",–
CCc1cc(=O)oc2c(C)c(OCC(=O)N3CCCc4ccccc43)ccc12,"inconclusive: 35.5 µM [inhibitor, single point]",–
CCC(C)(c1nnnn1-c1c(C)cccc1C)N(N=O)c1cccc(C(F)(F)F)c1 (stereo not given),"inconclusive: 3.55 µM [inhibitor, partial curve, poor fit]",–

# Record cards, from the list above. Order of values: Potency | activity change, negative = inhibition
# CCCc1nc2c(=O)[nH]c3ccccc3c2o1 as listed: – | inactive: 9.56% [at 46.1 µM]
# CCc1cc(=O)oc2c(C)c(OCC(=O)N3CCCc4ccccc43)ccc12 as listed: inconclusive: 35.5 µM [inhibitor, single point] | –
# Cc1ccc(S(=O)(=O)N2CCN(C(=O)c3cc(=O)[nH]c4ccccc34)CC2)c(C)c1 as listed: inconclusive: 1.16 µM [inhibitor, full curve] | –
